Data as given in PubChem BioAssay AID1508588 (Peter MacCallum Cancer Centre, 2020).
This is a random part of about 18,000 reagents tested. 790 of them (4.4%) were called active. 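Calls rest on a combination of fold-change classes in drug and vehicle arms, not all shown here.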

Screen: 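Knock-downs boosting vemurafenib effects on melanoma cell growth or lactate release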 (primary screen)
System: human WM266.4 melanoma cells (BRAF V600 mutant)
Reagent: siRNA pool against human genes, 40 nM
Duration: 96 h from transfection to read-out
Conditions: vemurafenib 300 nM (about IC25), added 48 h after transfection, for 48 h; comparison arm got DMSO vehicle only
Detection: 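Cell gain (DAPI nuclei at end minus before drug, mean of two replicates) and medium lactate by absorbance per cell, both as ratio to non-targeting siRNA, also grouped into fold-change classes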
Direction: cell gain with vemurafenib: higher = more cell gain than with non-targeting siRNA; lactate per cell with vemurafenib: higher = more lactate made per cell
Rule for the call: 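a knock-down counts as enhancing when its fold-change classes with vehicle and with vemurafenib, taken together, show a stronger drug effect on cell gain or lactate per cell; exact class pairs not stated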
Meaning of the calls: active = enhances vemurafenib effect; inactive = no enhancement seen

no.	gene knocked down	cell gain with vemurafenib	lactate per cell with vemurafenib	outcome
1	PIGA (phosphatidylinositol glycan anchor biosynthesis class A)	1.18	0.68	inactive
2	RNF8 (ring finger protein 8)	1.03	0.89	inactive
3	MFHAS1 (multifunctional ROCO family signaling regulator 1)	0.79	1.07	inactive
4	RIOK3 (RIO kinase 3)	0.85	0.66	inactive
5	NEK11 (NIMA related kinase 11)	0.22	0.96	inactive
6	KRTAP5-5 (keratin associated protein 5-5)	0.32	1.13	inactive
7	PDE4B (phosphodiesterase 4B)	1.03	0.77	inactive
8	APOF (apolipoprotein F)	0.49	0.21	inactive
9	BBC3 (BCL2 binding component 3)	0.39	1.45	inactive
10	H2BC15 (H2B clustered histone 15)	0.38	1.92	inactive
11	HSPA12B (heat shock protein family A (Hsp70) member 12B)	0.5	1.15	inactive
12	PNLIP (pancreatic lipase)	0.52	0.54	inactive
13	PRDX5 (peroxiredoxin 5)	0.72	0.8	inactive
14	KBTBD12 (kelch repeat and BTB domain containing 12)	0.81	0.78	inactive
15	LAS1L (LAS1 like ribosome biogenesis factor)	0.96	0.52	inactive
16	APBB3 (amyloid beta precursor protein binding family B member 3)	1.1	1	inactive
17	CLIP2 (CAP-Gly domain containing linker protein 2)	0.49	0.67	inactive
18	NTMT1 (N-terminal Xaa-Pro-Lys N-methyltransferase 1)	0.77	0.68	inactive
19	MICOS10	0.05	2.51	inactive
20	CACNG2 (calcium voltage-gated channel auxiliary subunit gamma 2)	0.66	0.95	inactive
21	NUP37 (nucleoporin 37)	0.99	0.48	active
22	ATP1A4 (ATPase Na+/K+ transporting subunit alpha 4)	0.58	0.81	inactive
23	SERPINB7 (serpin family B member 7)	0.59	0.29	active
24	CDHR4 (cadherin related family member 4)	-0.04	1.21	inactive
25	UBALD1 (UBA like domain containing 1)	0.17	1.62	inactive
26	HSPB3 (heat shock protein family B (small) member 3)	0.53	1.5	inactive
27	GARRE1 (granule associated Rac and RHOG effector 1)	0.75	0.74	inactive
28	SLC12A9	0.68	0.99	inactive
29	CIT (citron rho-interacting serine/threonine kinase)	0.01	1.7	inactive
30	CLCN6 (Cl-/H+ antiporter 6)	0.34	0.98	inactive
31	SCYL2 (SCY1 like pseudokinase 2)	1.13	0.62	inactive
32	VEGFC (vascular endothelial growth factor C)	-0.05	3.04	inactive
33	GTF2E2 (general transcription factor IIE subunit 2)	0.43	0.64	inactive
34	RPP21 (ribonuclease P subunit p21)	0.47	1.1	inactive
